Whole data set: some 33,000 sequences, median “E-score (-0.5 to 0.5)” near -8e-05, cut for the highest 2% near 0.23. This is one part of the list.
Molecular target: T1, Nrg2 (UniProt P38082)
T1 sequence: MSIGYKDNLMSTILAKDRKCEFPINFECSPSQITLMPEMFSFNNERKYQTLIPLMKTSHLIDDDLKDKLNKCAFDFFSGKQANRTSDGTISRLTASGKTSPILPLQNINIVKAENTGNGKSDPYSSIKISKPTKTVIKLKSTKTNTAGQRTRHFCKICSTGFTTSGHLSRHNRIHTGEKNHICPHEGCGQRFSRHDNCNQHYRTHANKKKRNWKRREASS
Assay: PBM E-score (8-mer binding enrichment) (E-score (-0.5 to 0.5)); higher = stronger / more preferred TF binding
Conditions: protein concentration: 100 nM; construct: GST-full length
Summary of the method: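 Each ungapped eight-base word and its reverse complement, pooled, received an E-score from the Universal PBM Analysis Suite. Underlying scans, normalised with masliner, recorded fluorescent anti-GST bound to GST-tagged yeast transcription factors. These were applied at about 100-200 nM to universal all-10-mer Agilent arrays double-stranded by primer extension.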

Sequence | PBM E-score
TCCGTAGA | -0.0598
CAGGCTTA | -0.0796
ATTCGCTA | -0.0606
AATCATCC | 0.0455
AAACCGTA | -0.0876
CATACGGC | 0.0689
GATATAGA | 0.0519
AGGGCGCC | 0.139
CTCATCAA | -0.0118
ATGATCTA | 0.236
CGATAGCA | -0.161
CGACCCCA | 0.13
CTCAACCA | -0.00996
ACGGTTGG | -0.2
CACGCACC | -0.208
ACTAGGCT | 0.0116
ACCAGTAC | -0.0262
CCTTCTAG | -0.215
CTGTCTGC | -0.206
AGGCTAGA | -0.299
AGCTAGGG | 0.00862
ACTCTCGA | 0.0367
CAGCCCAC | -0.14
GCGGGGCC | 0.0355
ACCCTATG | 0.127

Some of the entries so far, with tabs.
Sequence	PBM E-score
CGATAGCA	-0.161
CGACCCCA	0.13
ACGGTTGG	-0.2
CACGCACC	-0.208

Quoted at random: three entries already listed, in no set order.
Sequence | PBM E-score
TCCGTAGA | -0.0598
CCTTCTAG | -0.215
AGGCTAGA | -0.299

The results go on.

Sequence | PBM E-score
CGTATTAA | -0.0064
ACAGTCCG | -0.172
ACTATCGC | 0.0333
TATAAAGA | -0.044
CCCGGCCC | -0.251
ACTAAGTC | -0.0797
GCCAATAA | 0.137
AAAGCTGT | 0.117
CTTCTTAC | -0.116
AATGAACG | 0.0572
AATACGAG | 0.132
AACCATCC | -0.0832
AACCTACC | -0.0709
AACAAAAT | 0.153
CAGGCTCC | -0.143
AGGAGGAC | -0.274
CCGCTCTA | -0.0252
CAATGGGG | -0.128
CTGGGGGA | -0.419
CGAACACC | -0.0608
CATAGTTC | 0.045
GCCTTCCC | -0.352
TCGTACGA | -0.101
GCATGGCC | -0.0308
AACCACGG | -0.0501

Sequence | PBM E-score
ATATAATC | 0.0816
CCCAGCGG | -0.211
ATTGGGCC | 0.163
CGGCATTA | 0.0976
TATATGCA | -0.0847
CGCCAGCA | -0.218
GTAGTAGA | -0.0835
CAACAACA | 0.127
GCTGGCGA | -0.132
CAGTGGAC | -0.00742
CGGAGCAG | -0.109
ATGCCTCA | -0.00156
AGTACGAA | 0.144
TAGTCGAA | 0.0805
CTACATAC | 0.0503
CGGCGAGA | 0.0721
ATGCCACC | -0.0621
ATTATAGC | 0.0701
AATGCCAG | 0.041
CCTGCATC | -0.0151
ATGCGTAG | -0.112
ACGATACT | -0.0629
GTCGTTCA | -0.158
CTACGGCA | -0.0192
GATTTAAC | 0.0302

Sequence | PBM E-score
CCGGCCAA | -0.0829
CTGTGTTA | 0.0396
GGTTTCTA | 0.0672
ATTATCCA | 0.189
TCTCATCA | 0.131
CTGTAGGC | -0.109
GGCTCTGA | -0.106
GTGGGGCA | -0.0184
ATCACTTA | -0.137
ATTAATCG | 0.222
GGTGTAAA | -0.0134
CTACACTA | -0.0831
CTTACTTA | 0.0313
CACGTTAC | -0.206
AACCAACC | -0.105
ACAGGTCG | -0.00986
ATAGTTAC | -0.0575
AATTGTGG | 0.0167
CGCGAGCG | -0.00561
ATGAGAAT | 0.152
ATATACCC | 0.0613
AGGTCTGG | -0.204
AAGACACT | 0.127
AGTTCTTA | 0.0811
CGCACGAG | -0.0371

Sequence | PBM E-score
CTATACAG | -0.0337
CACTGCTC | -0.019
CGGTGCGC | -0.0228
GGTTATAC | -0.0785
CACGTCTA | -0.0411
AATCTTTC | 0.0868
AATCCGTA | -0.0501
GCACCCTA | 0.105
AATCACTG | 0.203
GTATGAAC | 0.0727
ATACACTG | 0.117
GCTGGGAC | -0.147
ACACTCGG | 0.0287
GACATACC | 0.0381
AGAAAGCT | 0.0283
CTGGATGA | 0.0113
GGGACTGA | -0.15
CCGCTAGA | -0.194
AGAAGGTG | -0.00485
GGGGTAAA | 0.02
AGTAGGAG | -0.128
AGATCGCA | 0.0389
AACAGTCC | -0.149
GGCGGGCA | -0.0772
ACGGACCT | 0.17

Sequence | PBM E-score
AGGAAGCG | -0.0453
CGCCGACC | -0.0861
CCGCACCC | 0.0906
ACGCCCAG | -0.12
CGAAGAGA | -0.0105
AGGCATCA | -0.226
TCAGATAA | 0.142
GAACTGGC | -0.122
ACTACGCG | -0.0292
AGAAGAGC | -0.187
CCGAATCG | -0.1
AGACCACA | -0.152
AAACGTCG | -0.045
AATTATGT | 0.0874
AGAGACGA | -0.0478
ACCGTTCC | 0.0793
CCGTGAGC | -0.305
CACCAGTA | -0.0531
GCAGTGGC | -0.173
ATAGGGGC | 0.0959
CAGTATGG | 0.0291
TCAACCGA | 0.163
CATTACAA | 0.0993
AAACTGGA | 0.0999
AAACATAT | 0.197

Sequence | PBM E-score
CCACAGTC | -0.276
CAGCGTAA | -0.0376
CGATCGTC | 0.0719
AAGTGCCA | -0.0263
GGATGCAA | -0.105
CGAAAAAC | 0.0099
GTTGTGGA | 0.0936
CCCGTCCC | -0.143
CAAGGCTC | -0.208
GTAACTGA | -0.0774
CGAGCATA | -0.0765
GACCTAAA | 0.0439
AGGTAGGA | -0.19
ACACGATA | -0.0296
GAAAGCAA | 0.18
TGGTCCAA | -0.112
CTAGGGAG | -0.22
CTAGAACA | 0.0487
CCGTAAGA | -0.122
ACCTTAGC | 0.025
GGGCCCCC | -0.279
AACCCCGA | 0.0604

Source: the supplement of paper PMC3334620
